Test results: patent publication US8071629B2, “2-pyridinylcycloalkylcarboxamide derivatives as fungicides” (Bayer Cropscience AG, priority 2005, dated 2011)
Some of these results come from one statement about several compounds together.

How the values were obtained:
Botrytis cinerea = assay: In vivo test on Botrytis cinerea (gherkin grey mould); conditions: gherkin plants, preventive spray 24 h before contamination, dose 500 or 125 ppm, grading 5/7 days after contamination vs control plants
Sphaerotheca fuliginea = assay: In vivo test on Sphaerotheca fuliginea (powdery mildew); conditions: gherkin plants, preventive spray 24 h before contamination, dose 125 ppm, grading 13 days after contamination vs control plants
Protocol: The active ingredients tested are prepared by homogenization in a mixture of DMSO (dimethylsulfoxide)/acetone/tween/water. This suspension is then diluted with water to obtain the desired active material concentration.
Gherkin plants (Vert petit de Paris variety) in starter cups, sown on a 50/50 peat soil-pozzolana substrate and grown at 20° C./23° C., are treated at cotyledons stage by spraying with the aqueous suspension described above. Plants, used as controls, are treated with an aqueous solution not containing the active material.
After 24 hours, the plants are contaminated by spraying them with an aqueous suspension of Sphaerotheca fuliginea spores (100 000 spores per ml). The spores are collected from a contaminated plants. The contaminated gerkhin plants are incubated at about 20° C./25° C. and at 60/70% relative humidity.
Grading (% of efficacy) is carried out 13 days after the contamination, in comparison with the control plants.

Pyrenophora teres = assay: In vivo test on Pyrenophora teres (barley net blotch); conditions: barley plants, preventive spray 24 h before contamination, dose 500 ppm, grading 12 days after contamination vs control plants
Alternaria brassicae = assay: In vivo test on Alternaria brassicae (leaf spot of crucifers); conditions: radish plants, preventive spray 24 h before contamination, dose 500 ppm, grading 6 to 7 days after contamination vs control plants

Cn1cc(C(=O)NC2CC2c2ncc(Cl)cc2Cl)c(C(F)F)n1 (stereo not drawn) [Compound A-3, N-[2-(3,5-dichloropyridin-2-yl)cyclopropyl]-3-(difluoromethyl)-1-methyl-1H-pyrazole-4-carboxamide]
at least 70%: protection (good, at least 70%, or total) (Botrytis cinerea) | protection, % of efficacy (good, at least 70%, to total) (Sphaerotheca fuliginea) | protection (good, at least 70%, to total) (Pyrenophora teres) | protection (good, at least 70%, to total) (Alternaria brassicae)

Cn1cc(C(=O)N[C@@H]2CCCC[C@H]2c2ncc(Cl)cc2Cl)c(C(F)F)n1 (relative stereo) [Compound A-1, N-{2-[3,5-dichloro-2-pyridinyl]trans-cyclohexyl}1-methyl-3-(difluoromethyl)-1H-pyrazole-4-carboxamide]
at least 70%: protection (good, at least 70%, to total) (Pyrenophora teres) | protection (good, at least 70%, to total) (Alternaria brassicae)
